Reference: patent US20190360030
For some assays here: The exact form of at least one protein or probe is not confirmed.

Tests used:
[1] = target: Nfo (endonuclease IV) (Escherichia coli) (UniProt P0A6C1); assay: enzyme reaction in vitro; settings: tetrahydrofuran abasic residue at n (position 25); THF probe cut and extended only with amplified target in RPA mix; 10 mM Mg-acetate; products seen by 30 min at 12 nM probe; purified recombinant protein; label: 5'-biotin, 3'-digoxygenin; single-stranded DNA
[2] = target: UvsX(C) (Bacteriophage T4) (UniProt P04529); assay: activity assay; settings: supports amplification with Sizer2, gp32(N), Klenow and PEG; purified recombinant protein; protein details: C-terminal His tag; label: 5'-biotin; single-stranded DNA

## CATGATTGGATGAATAAGCTGCAGTGATTAAAGGAAAC [THF-Probe 1]
[1]
  activity on this sequence: active

## CTCACTATACCTCAGCATCATGATTGGTGAAGGTCCGGCGGCAC [Tester3bio]
[2]
  activity on this sequence: active
